# Assay results from the supplement of paper PMC5407854, “Inhibitor of ppGalNAc-T3-mediated O-glycosylation blocks cancer cell invasiveness and lowers FGF23 levels” (eLife, 2017).
# The full ranking holds about 1,700 compounds; the median of “T3 sensor activation Q score (MG/GFP ratio z-score vs DMSO controls)” is about 0.25, and the highest 2% start at about 1.9. The list shows a part of the results.
# System: ppGalNAc-T3 sensor
# Test: T3 sensor activation Q score (MG/GFP ratio z-score vs DMSO controls) (SD units); higher = more sensor activation (inhibition of ppGalNAc-T3 glycosylation)
# Settings: HEK293 sensor cells; 10 µM; 6 h
# Protocol: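 Cells were treated with compound at 10 uM for 6 h, then MG/GFP ratio was read by flow cytometry (10,000 cells per well, duplicate wells). Q = (R - R_neg)/SD_neg relative to DMSO vehicle controls; the signal rises when the glycosyltransferase is inhibited.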
row,Compound,T3 sensor activation Q score
1,c1ccc(-n2nnnc2-c2cccc3ccccc23)cc1,-0.85
2,O=C(O)c1cc(N2C(=O)C=CC2=O)cc(N2C(=O)C=CC2=O)c1,0.75
3,CCOc1ccc(/C=C2\CCc3ccccc3C2=O)cc1,1.85
4,CCCCCCCCCC[C@H](C(=O)O)[C@]1(C(=O)O)CCC(=O)O1,1.2
5,CCOC(=O)c1c[nH][nH]c1=O,1.3
6,CCOC(=O)Nc1ccc2nc(-c3cscn3)[nH]c2c1,-1.8
7,Oc1ccc2c(ccc3[nH]cnc32)c1,0.3
8,CSc1ncc2[nH]c(C(O)c3ccccc3)nc2n1 (configuration not stated),-0.6
9,Cc1c(Cc2ccccc2)[n+](=O)c2ccccc2n1[O-],0.1
10,Cc1nc2ccc(Cl)cn2c1[N+](=O)[O-],-0.55
11,Cc1ccc2c(c1)c1ccc3c(c1n2C)C(=O)C=CC3=O,-1.5
12,O=c1cc(-c2ccc(Cl)cc2)[nH]c2ccccc12,0
13,Cn1c(=O)c2c(ncn2CCOC(=O)C(C)(C)Oc2ccc(Cl)cc2)n(C)c1=O,-0.8
14,CN1CCC(=C2c3ccccc3C(O)c3ccccc32)CC1 (configuration not stated),-1.45
15,C[C@]12CC[C@H](O)CC1=CC[C@@H]1[C@@H]2CC[C@]2(C)C(c3cccnc3)=CC[C@@H]12,-0.55
16,CCN(CC)c1ccc(/C=C/c2cc(-c3ccccc3)c3ccccc3n2)cc1,-1.3
17,c1ccc(NCCSc2nc3ccccc3s2)cc1,-0.65
18,c1ccc2nc(NN=C3CCCCC3)ccc2c1,-0.55
19,Cn1nnc2c(C(N)=O)ncn2c1=O,0.75
20,Cc1ccc2c(c1)sc1nncn12,-0.15
21,Cc1cc(C)n(C(N)=NC(=O)c2ccccc2)n1,-0.1
22,Cc1cc(=O)c2c(o1)C(=O)c1occc1C2=O,1.55
23,CNc1ncn(-c2c(C)cccc2C)c(=O)n1,1.05
24,Cc1ccc(S(=O)(=O)N2CC=C(N)N2)cc1,-0.2
25,Nc1cc2c3c(cccc3c1)C(=O)N(CCN1CCCC1)C2=O,0.1
26,O=[N+]([O-])c1cc(F)c2cccnc2c1O,1.8

row,Compound,T3 sensor activation Q score
1,C#CCNc1ccc(C(=O)OCC)cc1,-1.05
2,O=C1C=C(c2ccccc2)OC(=O)C1C(=O)c1ccccc1 (configuration not stated),0.8
3,CCOc1ccc(NC(=O)Nc2cc(C(C)C)c(O)cc2C)cc1,1.35
4,CC1=CC2C(C(O)CC3(C)C2CC(C)C32OCOC23COCO3)C2(C)CC(=CO)C(=O)C=C12 (configuration not stated),-3.35
5,CCOC(=O)c1csc(-c2ccc(COC(=O)c3ccccc3)o2)n1,1.25
6,COc1ccc(-c2cc(-c3ccccc3)c(-c3ccccc3)nn2)cc1,0.95
7,Cc1ccncc1C(N)=O,1.9
8,CC(C)(C)C1=NN=C2c3ccccc3C(=O)C21 (configuration not stated),0.25
9,CN(C)Cc1c[nH]c2nccnc12,-1.4
10,Brc1csc2ncccc12,1.05
11,c1ccc(-c2nc3ccccc3s2)nc1,-0.2
12,Cc1c(O)cnc2nn(-c3ccccc3)c(=N)n12,1.45
13,COc1cc(/C=C2\CCOC2=O)cc(OC)c1OC,1.15
14,CO[C@H]1C[C@@H]2CC[C@@H](C)[C@@](O)(O2)C(=O)C(=O)N2CCCC[C@H]2C(=O)O[C@H]([C@H](C)C[C@@H]2CC[C@@H](OC(=O)C(C)(CO)CO)[C@H](OC)C2)CC(=O)[C@H](C)/C=C(\C)[C@@H](O)[C@@H](OC)C(=O)[C@H](C)C[C@H](C)/C=C/C=C/C=C/1C,-1.65
15,Cn1c(=O)c2c(nc(OCCc3ccccc3)n2C)n(C)c1=O,1.6
16,O=[N+]([O-])c1ccc(Sc2ncccn2)c([N+](=O)[O-])c1,0.25
17,C1CCc2nc3c(nc2C1)CCCC3,-0.2
18,O=C(O)/C(Cc1cn[nH]n1)=N\O,-0.95
19,Cc1ccc(NC(=O)N2CCN(C)CC2)cc1NC(=O)N1CCN(C)CC1,0.25
20,CNC(=O)OCN1C(=O)C2CC=CCC2C1=O (configuration not stated),1.3
21,COC1OC2COC(c3ccccc3)OC2C(=O)C1NC(=O)c1ccccc1 (configuration not stated),0.3
22,C=CCN=C(NC#N)SC,0.05
23,Cc1ccc(S(=O)(=O)NNC(=O)C23CCC(CC2)C3)cc1,0.85
24,Nc1ncnc2c1ncn2C=C=CCO,-0.8
25,Cc1cccc(C)c1NC(=O)NCc1ccco1,1.25
26,C1CCC(NC2=NCCO2)CC1,-1.2

row,Compound,T3 sensor activation Q score
1,CN(C)c1ccc(/C=C2/C=C(c3ccc4c(c3)CCCC4)OC2=O)cc1,0.9
2,Cc1nc(Nc2ccc(F)cc2)nc(Nc2ccc(F)cc2)c1[N+](=O)[O-],-1.05
3,Cc1nc(N)nc(Cl)c1CCC1OCCO1,0.8
4,CCOC(=O)c1[nH]c(CO)c(C(=O)OCC)c1C,-0.1
5,CCCOc1ccc(-c2nc(-c3ccc(N)cc3)cs2)cc1,-0.3
6,Cc1ccc(Nc2nccc(N(C)c3ccc4c(C)n(C)nc4c3)n2)cc1S(N)(=O)=O,0.2
7,CC(C)(C)C(=O)Nc1ccc(NC(=O)C(C)(C)C)cc1,-0.35
8,COc1ccc2c(C)cc(C)nc2n1,-1.35
9,Cc1c(O)ccc2c(O)c(NC(=O)c3ccc4c(c3)CCC(C)(C)O4)c(=O)oc12,0.9
10,COC(=O)c1cc(C)c(C)cc1NC1OC(CO)C(O)C1O (configuration not stated),0.5
11,COC(=O)C1=C(C)NC(C)=C(C(=O)OC)C(N2C(=O)CCC2=O)C1 (configuration not stated),1
12,O=C(Nc1ccccc1)C1=C(Nc2ccccc2)CSC1,-1.15
13,Nc1nc(N)c(N=Nc2ccc(S(N)(=O)=O)cc2)c(=O)[nH]1,-0.25
14,O=c1cc[nH]c2c(Cl)cccc12,-1.25
15,O=C(Nc1nnc(C(F)(F)F)s1)c1c(F)cccc1F,0.45
16,CN1C=C/C(=C\[N+](=O)[O-])N(C)C1=O,-0.45
17,CN1C(=O)c2ccccc2Cc2c(NCc3ccccc3)ncnc21,0.9
18,NC(=O)Nc1ccc(Nc2ccccc2)cc1,0.7
19,Nc1ccc(Nc2ccccc2)c(S(=O)(=O)O)c1,1
20,Cc1cc2nc(-c3ccccn3)c(-c3ccccn3)nc2cc1C,1.35
21,CCSc1nc(=S)cc(C)[nH]1,0
22,COc1cc(O)c(C(=O)/C=C/c2ccccc2)c(OC)c1,0.1
23,O=C(O)c1cc2cc(OCc3ccccc3)ccc2[nH]1,0.1
24,O=c1[nH]cnc2c1ncn2Cc1ccc([N+](=O)[O-])cc1,0.15
25,CC1CCCC(CC(=O)O)(CC(=O)O)C1 (configuration not stated),0.75
26,CC(C)Oc1ccc(C(=O)O)cc1,-1.8

# As entered above:
# Under T3 sensor activation Q score, COC(=O)c1cc(C)c(C)cc1NC1OC(CO)C(O)C1O (configuration not stated) is entered as 0.5
# Under T3 sensor activation Q score, Cc1c(O)ccc2c(O)c(NC(=O)c3ccc4c(c3)CCC(C)(C)O4)c(=O)oc12 is entered as 0.9
# Under T3 sensor activation Q score, O=c1cc[nH]c2c(Cl)cccc12 is entered as -1.25
# Under T3 sensor activation Q score, CCSc1nc(=S)cc(C)[nH]1 is entered as 0
# Under T3 sensor activation Q score, CN1C=C/C(=C\[N+](=O)[O-])N(C)C1=O is entered as -0.45
# Under T3 sensor activation Q score, CN(C)c1ccc(/C=C2/C=C(c3ccc4c(c3)CCCC4)OC2=O)cc1 is entered as 0.9

# (further entries)

row,Compound,T3 sensor activation Q score
1,CS/C(=C\c1ccc(C(=O)c2ccc(C)cc2)n1C)[S+](C)[O-] (configuration not stated),-0.45
2,c1ccc2c(c1)Nc1cc3ccccc3cc1S2,-0.45
3,O=[N+]([O-])c1ccc2c3ccccc3[s+]([O-])c2c1 (configuration not stated),0.5
4,Cc1ccc(NC(=O)N2CCCCC2)cc1[N+](=O)[O-],1.55
5,CSc1nc(Cl)c(Br)c(Nc2c[nH]c(=O)[nH]c2=O)n1,1
6,CSc1n[nH]c(-c2cccs2)n1,-1.35
7,CCOC(=O)Nc1c(Cl)n(C)c(=O)n(C)c1=O,1.75
8,C=CCNC(=S)NCC,1.9
9,CCOC(=O)C1(C#N)C(=O)CSC1=Nc1ccccc1Cl (configuration not stated),-1.05
10,O=C(c1ccccc1)c1ccc(Sc2ccc([N+](=O)[O-])cc2)cc1,-0.5
11,CN1CCN(C(=O)Nc2ccc([N+](=O)[O-])cc2)CC1,0.8
12,Cn1ncc2c(Nc3ccc(Br)cc3)nc(Nc3ccc(Br)cc3)nc21,-1.2
13,Nc1ccccc1-n1nc2ccc3ccccc3c2n1,-0.85
14,Clc1ccc(C(c2ccccc2Cl)C(Cl)Cl)cc1 (configuration not stated),1.1
15,CCC(=Cc1ccc(CC)cn1)CC,-1.25
16,Cn1ncc2c(Sc3ccc(Cl)cc3)ncnc21,0.65
17,CN(C)Cc1cc(C(F)(F)F)ccc1C(O)(c1ccccc1)c1ccccc1,1.3
18,CCNc1nc(NC(C)C)nc(-c2ccncc2)n1,1.1
19,O=c1ccnc(Nc2ccc(Cl)cc2)[nH]1,0.15
20,Cc1c(NC(=O)Nc2c(Cl)cccc2Cl)c(=O)n(-c2ccccc2)n1C,0.1
21,CCOC(=O)c1nn(-c2ccccc2)cc1O,0.05
22,N/C(CC(=O)Nc1cc(C(F)(F)F)ccc1Cl)=N\O,0.4
23,CCCc1cc(=O)oc2c3c(c4c(c12)OC(C)(C)C=C4)O[C@H](C)[C@@H](C)[C@@H]3O,-0.8
24,COc1c(C=O)c2c(c(OC)c1OC)-c1ccc(OC)c(=O)cc1C(NC(C)=O)CC2 (configuration not stated),4.1
25,O=c1nc(Oc2ccccc2)nc2ncccn12,-0.5
26,CCC(C)n1c(C)cc(=O)n1C(C)CC (configuration not stated),-0.6

row,Compound,T3 sensor activation Q score
1,c1ccn(CCc2ccncc2)c1,0.75
2,CC1=NC(C)(C)CC2CCC(O)C12 (configuration not stated),0.7
3,Nc1nc(Cl)cc(Nc2ccccc2Cl)n1,0.65
4,CN(C)c1ccc(/C=C/C(=O)c2cc(Cl)ccc2O)cc1,-1.65
5,NC1(N2SC(S)=C3CCCC=C32)CCCCC1,0.75
6,Cc1cccn2c(=S)[nH]nc12,-0.2
7,CCSc1nc(C)c(C)c(=O)[nH]1,-1.1
8,OC(COc1ccc(Cl)cc1)CN1CCN(c2cccc(Cl)c2)CC1 (configuration not stated),-0.65
9,CCOC(=O)/C(=N\O)C1=CSC2=NNC(C)(C)N12,-0.1
10,Oc1ccc(Cc2ccc(Cl)cc2)c(O)c1,-0.85
11,CCCCOc1ccc(OC(=O)Nc2cc(Cl)ccc2OC)cc1,0.9
12,COc1ccc(CC(=O)c2ccc(O)cc2O)cc1,-0.4
13,CCOC(=O)c1nc2sc3c(c2c(=O)[nH]1)CCCC3,1.55
14,CCOC(=O)CCCN(c1[nH]c(C)c(C)c1C#N)S(=O)(=O)c1ccc(C)cc1,-0.3
15,O=C(O)c1ccc2c(c1Sc1ccccc1)C(=O)c1ccccc1C2=O,0.45
16,C(=C\CSc1ccccn1)/CSc1ccccn1,0.8
17,O=C(Nc1ccc(Cl)c([N+](=O)[O-])c1)Nc1nc2ccccc2s1,0.3
18,Cc1cc(NC(=O)OC(C)C)ccc1-c1ccc(NC(=O)OC(C)C)cc1C,-0.7
19,CN(C(=O)c1ccncc1)c1ccccc1,0.2
20,O=c1[nH]c2nc(Cl)nc(Cl)c2[nH]1,0.2
21,CCOC(=O)c1cc(OCC)c2c(ccc3ccccc32)n1,1.85
22,Nn1c(Cc2ccccc2)nnc1Cc1ccccc1,0.55
23,O=C(O)CSc1nc2ccccc2s1,-0.1
